Experimental data published in article PMC7257233.

Molecular target: T1, His-tagged GMEB1 protein (GMEB1-His) (UniProt Q9Y692)
T1 sequence: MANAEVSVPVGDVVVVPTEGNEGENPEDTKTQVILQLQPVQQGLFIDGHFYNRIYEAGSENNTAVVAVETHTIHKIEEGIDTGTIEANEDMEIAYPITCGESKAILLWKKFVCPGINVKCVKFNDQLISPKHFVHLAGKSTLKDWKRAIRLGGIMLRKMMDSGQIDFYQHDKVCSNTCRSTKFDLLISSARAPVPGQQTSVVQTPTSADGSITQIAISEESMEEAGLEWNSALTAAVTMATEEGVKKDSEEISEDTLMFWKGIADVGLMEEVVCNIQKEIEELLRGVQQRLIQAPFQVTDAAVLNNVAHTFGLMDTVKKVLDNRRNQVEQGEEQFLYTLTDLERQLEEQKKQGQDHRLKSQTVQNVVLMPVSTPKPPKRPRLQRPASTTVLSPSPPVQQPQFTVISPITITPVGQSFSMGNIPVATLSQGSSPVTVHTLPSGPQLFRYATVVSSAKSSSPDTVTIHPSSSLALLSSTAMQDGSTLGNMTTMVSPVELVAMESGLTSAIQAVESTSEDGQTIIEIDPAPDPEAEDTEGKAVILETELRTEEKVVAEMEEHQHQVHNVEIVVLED
Assay: co-IP; HEK293FT cells co-transfected with GMEB1-His and FLAG-tagged TRAF3 forms; lysed in 0.5% NP40 buffer (25 mM Tris-HCl pH 7.4, 150 mM NaCl, 5 mM EDTA); GMEB1-His precipitated with Ni-NTA beads; blot with anti-FLAG and anti-His

With “truncated TRAF3 (TRAF3ΔC-flag), lacking the TRAF-C domain (human) (domain or fragment)” the binding was “binds”.

Results are given in words; binding and its absence hold for the method and conditions named. In cells and extracts the contact can be indirect. A result given as binding can be weak or reduced; the word gives no strength. Tags and fused reporters may be left off the sequences shown.
